system: not listed separately; test: Singlet oxygen determination (RNO photobleaching, cell-free); format: physicochemical; conditions: compound 2.2 × 10^–5 M, phosphate buffer pH 7.3, UVA 0–20 J/cm^2
Protocol: Singlet oxygen determination. Samples containing the compounds under examination (2.2 × 10^–5 M), p-nitrosodimethylaniline (4 × 10^–5 M) and imidazole (4 × 10^–5 M) in 0.02 M phosphate buffer (pH 7.3) were irradiated with increasing UVA doses and their absorbance at 440 nm was then measured (Kraljic and El Mohsni [1978]). The data were expressed as percentage of RNO bleaching.
The percentage of RNO photobleaching of tested compounds under increasing light doses, which is a measure of singlet oxygen generation, is shown in Fig. 2.

SMILES | Singlet oxygen generation (percentage of RNO photobleaching at 440 nm)
CC(C)OC(=O)C1(Br)C=CC2=C3NC(=O)C(S(=O)(=O)c4ccccc4)C=C3CCCN21 (stereo not drawn) [Compound 8h, Propan-2-yl 3-(benzenesulfonyl)-9-bromo-2-oxo-1,5,6,7-tetrahydro-2H-pyrido[2,3-c]pyrrolo[1,2-a]azepine-9-carboxylate] | higher percentage of RNO photobleaching
CC(C)OC(=O)c1ccc2n1CCc1cc(S(=O)(=O)c3ccccc3)c(=O)[nH]c1-2 [Compound 7c, Propan-2-yl 3-(benzenesulfonyl)-2-oxo-1,2,5,6-tetrahydropyrrolo[1,2-h][1,7]naphthyridine-8-carboxylate] | with the exception of 7a and 7c, were able to generate singlet oxygen
O=c1[nH]c2c(cc1S(=O)(=O)c1ccccc1)CCn1cccc1-2 [Compound 7a, 3-(benzenesulfonyl)-5,6-dihydropyrrolo[1,2-h][1,7]naphthyridin-2(1H)-one] | with the exception of 7a and 7c, were able to generate singlet oxygen

system: MDA-MB-231 cells; test: Cellular accumulation and biodistribution (confocal microscopy); format: cell-based, human; conditions: MDA-MB-231, upon irradiation, confocal microscopy × 20
Protocol: MDA-MB-231 cells were seeded into 4-well tissue-culture slides (BD Falcon, Bedford, MA, USA) at 2.5 × 10^4 cells/well (0.4 cm^2). After 24 h, after 1 h of incubation the medium was replaced with PBS and cells were treated with 2.0 J cm^−2 of UVA light. After irradiation, PBS was replaced with complete proliferation media. Samples were examined at 20 × magnification in a Zeiss LSM 800 confocal microscope using the Zeiss ZEN 2.3 software system.
With the aim of correlating cellular phototoxic activity with intracellular accumulation of tested compounds, we performed some preliminary in cell biodistribution studies.
Fig. 7 Intracellular accumulation studies. MDA-MB-231 TNBC cells were treated with 7h, 8e and 8h upon irradiation and live samples were examined at × 20 magnification by a confocal microscope

SMILES | Intracellular accumulation
CCOC(=O)c1ccc2n1CCc1cc(S(=O)(=O)c3ccccc3)c(OC)nc1-2 [Compound 7h, Ethyl 3-(benzenesulfonyl)-2-methoxy-5,6-dihydropyrrolo[1,2-h][1,7]naphthyridine-8-carboxylate] | able to significantly enter cancer cell membrane and accumulate in cytoplasm
CC(C)OC(=O)C1(Br)C=CC2=C3NC(=O)C(S(=O)(=O)c4ccccc4)C=C3CCCN21 (stereo not drawn) [Compound 8h, Propan-2-yl 3-(benzenesulfonyl)-9-bromo-2-oxo-1,5,6,7-tetrahydro-2H-pyrido[2,3-c]pyrrolo[1,2-a]azepine-9-carboxylate] | barely effective in accumulating into cancer cells
CCOC(=O)c1ccc2n1CCCc1cc(S(=O)(=O)c3ccccc3)c(OC)nc1-2 [Compound 8e, Ethyl 3-(benzenesulfonyl)-2-methoxy-6,7-dihydro-5H-pyrido[2,3-c]pyrrolo[1,2-a]azepine-9-carboxylate] | able to significantly enter cancer cell membrane and accumulate in cytoplasm
